The text below walks through data of PubChem BioAssay AID886 (National Center for Advancing Translational Sciences (NCATS), 2007).

Sequences of proteins named here, by UniProt entry; tags and fusion partners are left off. A change or cut given only in a name is not applied to a line headed by its entry.
UniProt Q99714: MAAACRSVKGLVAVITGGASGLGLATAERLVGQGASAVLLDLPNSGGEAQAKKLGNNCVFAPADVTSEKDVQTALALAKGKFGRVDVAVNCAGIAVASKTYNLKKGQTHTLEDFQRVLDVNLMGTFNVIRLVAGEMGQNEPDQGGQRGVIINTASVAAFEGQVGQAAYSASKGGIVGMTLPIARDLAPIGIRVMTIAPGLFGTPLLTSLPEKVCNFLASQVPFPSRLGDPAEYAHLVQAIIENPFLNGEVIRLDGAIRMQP

Structures are written as SMILES. The hits were mostly taken out for another list; the other results follow. Inconclusive results are not listed. Active and inactive are the calls of the source. The call rests on the fitted dose curve; in most records, active means well fitted inhibition curve with a large enough effect; inconclusive means small, poorly fitted or top-dose-only effect; inactive means no such curve, though single readings can be large or run the other way.

The assay deals with 3-hydroxyacyl-CoA dehydrogenase type-2 (Homo sapiens) (UniProt Q99714). Nature of the assay: qHTS Assay for Inhibitors of HADH2 (Hydroxyacyl-Coenzyme A Dehydrogenase, Type II). Further: nearly all actives have a fitted effect of over 60% in size. As to conditions: recombinant HADH2, NADH fluorescence, beta-hydroxybutyryl-CoA. The text has this:
Assay Overview: NIH Molecular Libraries Screening Centers Network [MLSCN] NIH Chemical Genomics Center [NCGC] Structural Genomics Consortium [SGC] Grant Number: None HADH2: Hydroxyacyl-Coenzyme A dehydrogenase, type II, was supplied by researchers at the Structural Genomics Consortium, Oxford University lab (PI Udo Oppermann). The mitochondrial enzyme 17-hydroxysteroid dehydrogenase type 10 (HSD17-10) previously classified as type II hydroxyacyl-CoA dehydrogenase (HADH2) catalyzes the NAD+ dependent oxidation of a variety of substrates including acyl-CoAs, androgens and neurosteroids as well as bile acids(Shafqat N, Marschall HU, Filling C, et al. Biochemical Journal. 2003;376(Pt 1):49-60). […] An increase in the fluorescence intensity due to conversion of NAD+ to NADH was used to measure the enzyme activity.
Assay Protocol: Buffer: 100 mM Tris-HCl pH 9.0, containing 0.01 % Tween-20. […] The plates were immediately transferred to and read every 30 seconds for 4 min on ViewLux High-throughput CCD imager (Perkin-Elmer) using 360 nm excitation and 450 nm emission fluorescence protocol. The fluorescence intensity difference between the last and the first time points was used to compute reaction progress.
On the technique in general: In qHTS, concentration-response curves come from the screen itself.
On the % scale 0 is the no-effect control and ±100 the full control effect.

For the compound `CN1[C@@H]2CC[C@H]1CC(OC(=O)[C@@H](O)c1ccccc1)C2` (some centres not stated), the activity change, negative = inhibition (at 11.4 µM (top of the series)) was inactive: 3.97% and the activity change, negative = inhibition (at 25.6 µM (top of the series)) was inactive: -6.34%.
